Experimental findings from publication PMC7081327 are described below.

For the assay, the target named is HA-TAZ, Q9GZV5. Briefly: co-IP; HEK293 cells with GFP or TEADi; IP lysis buffer 50 mM Tris-Cl pH 7.5, 150 mM NaCl, 10% glycerol, 2 mM MgCl2, 1% NP40; antibody overnight at 4 °C with Dynabeads Protein G; western blot (Fig. 1c). To be noted: remark: other sources report otherwise. A general note: In western blotting, separated proteins are transferred to a membrane and probed.

These are yes or no findings as the source states them, for the method shown. In cells and extracts the contact can be indirect. Some entries that bind do so weakly or less than the wild type.

B1: LATS1, O95835 1-1130 (protein)
chain: MKRSEKPEGYRQMRPKTFPASNYTVSSRQMLQEIRESLRNLSKPSDAAKAEHNMSKMSTEDPRQVRNPPKFGTHHKALQEIRNSLLPFANETNSSRSTSEVNPQMLQDLQAAGFDEDMVIQALQKTNNRSIEAAIEFISKMSYQDPRREQMAAAAARPINASMKPGNVQQSVNRKQSWKGSKESLVPQRHGPPLGESVAYHSESPNSQTDVGRPLSGSGISAFVQAHPSNGQRVNPPPPPQVRSVTPPPPPRGQTPPPRGTTPPPPSWEPNSQTKRYSGNMEYVISRISPVPPGAWQEGYPPPPLNTSPMNPPNQGQRGISSVPVGRQPIIMQSSSKFNFPSGRPGMQNGTGQTDFMIHQNVVPAGTVNRQPPPPYPLTAANGQSPSALQTGGSAAPSSYTNGSIPQSMMVPNRNSHNMELYNISVPGLQTNWPQSSSAPAQSSPSSGHEIPTWQPNIPVRSNSFNNPLGNRASHSANSQPSATTVTAITPAPIQQPVKSMRVLKPELQTALAPTHPSWIPQPIQTVQPSPFPEGTASNVTVMPPVAEAPNYQGPPPPYPKHLLHQNPSVPPYESISKPSKEDQPSLPKEDESEKSYENVDSGDKEKKQITTSPITVRKNKKDEERRESRIQSYSPQAFKFFMEQHVENVLKSHQQRLHRKKQLENEMMRVGLSQDAQDQMRKMLCQKESNYIRLKRAKMDKSMFVKIKTLGIGAFGEVCLARKVDTKALYATKTLRKKDVLLRNQVAHVKAERDILAEADNEWVVRLYYSFQDKDNLYFVMDYIPGGDMMSLLIRMGIFPESLARFYIAELTCAVESVHKMGFIHRDIKPDNILIDRDGHIKLTDFGLCTGFRWTHDSKYYQSGDHPRQDSMDFSNEWGDPSSCRCGDRLKPLERRAARQHQRCLAHSLVGTPNYIAPEVLLRTGYTQLCDWWSVGVILFEMLVGQPPFLAQTPLETQMKVINWQTSLHIPPQAKLSPEASDLIIKLCRGPEDRLGKNGADEIKAHPFFKTIDFSSDLRQQSASYIPKITHPTDTSNFDPVDPDKLWSDDNEEENVNDTLNGWYKNGKHPEHAFYEFTFRRFFDDNGYPYNYPKPIEYEYINSQGSEQQSDEDDQNTGSEIKNRDLVYV
In the case of B1, the binding result is “binds”.
